Experimental findings from paper PMC7463354 are described below.

One may read the Kd as the equilibrium constant for the complex coming apart.

The target of data set [1] is T1, r.LIN28A-Δ14 (Homo sapiens) (UniProt Q9H9Z2).
T1 sequence (looked up): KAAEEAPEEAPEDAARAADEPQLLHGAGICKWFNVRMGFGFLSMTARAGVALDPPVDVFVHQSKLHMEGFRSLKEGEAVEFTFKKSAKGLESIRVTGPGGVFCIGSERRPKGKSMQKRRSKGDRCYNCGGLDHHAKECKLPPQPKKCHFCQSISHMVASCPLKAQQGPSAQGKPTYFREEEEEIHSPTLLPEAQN
Nature of the data set: EMSA. To be noted: 5 nM probe, EMSA: 20 mM Tris/HCl pH 7.6, 5 mM MgCl2, 100 mM NaCl, 10% glycerol, 2 mM DTT, 40 U RNase inhibitor, 60 min 25 °C, recombinant protein, residues 15-209, label: 5'-biotin. (In general: Mobility shift assays separate free from complexed probe on a gel.)

For data set [2], the target named is T1, r.LIN28A-Δ14 (Homo sapiens). The experiment in a line: SPR. To be noted: RNA captured on SA chip, Methods call it pre-let-7g, Results and legend preE-let-7g; SPR: PBS, 0.05% Tween-20, 5% DMSO, pH 7.4, 25 °C; recombinant protein; residues 15-209; label: 5'-biotin.

Construct, isoform or probe ends are uncertain for at least one entry. Protein sequences can lack the tags named with them.

As for “UGAGGGUCUAUGAUACCACCCGGUACAGGAGAUAA [preE-let-7g]”, the Kd in data set [1] (Kd as printed is below the probe concentration) was determined as 0.12 nM; in data set [2], 6.7 nM.
In the case of “UUAGGGUCACACCCACCACUGGGAGAUAA [preE-let-7a-1]”, the binding result in data set [1] (less bound than SUMO1-LIN28A-Δ14) is “binds”.
